Binding data for 1 substance are collected here from article PMC12053477.

Chains of the proteins cited; added tags and fusions are not shown.
UniProt Q9NRG4: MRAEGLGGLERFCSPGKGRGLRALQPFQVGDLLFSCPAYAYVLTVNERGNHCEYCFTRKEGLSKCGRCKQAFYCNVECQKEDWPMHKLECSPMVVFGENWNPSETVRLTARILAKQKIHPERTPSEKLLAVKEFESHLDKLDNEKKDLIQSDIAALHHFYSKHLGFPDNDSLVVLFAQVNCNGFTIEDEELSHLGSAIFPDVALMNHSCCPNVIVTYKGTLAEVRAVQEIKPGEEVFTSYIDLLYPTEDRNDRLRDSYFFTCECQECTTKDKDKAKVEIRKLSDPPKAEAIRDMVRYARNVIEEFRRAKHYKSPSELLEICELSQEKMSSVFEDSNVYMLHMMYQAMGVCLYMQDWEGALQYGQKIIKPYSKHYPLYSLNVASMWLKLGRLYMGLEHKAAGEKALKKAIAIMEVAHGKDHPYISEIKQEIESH

The test deals with T1, EOMES (human (endogenous in endoderm cells derived from H9 hPSCs)) (UniProt O95936).
T1 sequence: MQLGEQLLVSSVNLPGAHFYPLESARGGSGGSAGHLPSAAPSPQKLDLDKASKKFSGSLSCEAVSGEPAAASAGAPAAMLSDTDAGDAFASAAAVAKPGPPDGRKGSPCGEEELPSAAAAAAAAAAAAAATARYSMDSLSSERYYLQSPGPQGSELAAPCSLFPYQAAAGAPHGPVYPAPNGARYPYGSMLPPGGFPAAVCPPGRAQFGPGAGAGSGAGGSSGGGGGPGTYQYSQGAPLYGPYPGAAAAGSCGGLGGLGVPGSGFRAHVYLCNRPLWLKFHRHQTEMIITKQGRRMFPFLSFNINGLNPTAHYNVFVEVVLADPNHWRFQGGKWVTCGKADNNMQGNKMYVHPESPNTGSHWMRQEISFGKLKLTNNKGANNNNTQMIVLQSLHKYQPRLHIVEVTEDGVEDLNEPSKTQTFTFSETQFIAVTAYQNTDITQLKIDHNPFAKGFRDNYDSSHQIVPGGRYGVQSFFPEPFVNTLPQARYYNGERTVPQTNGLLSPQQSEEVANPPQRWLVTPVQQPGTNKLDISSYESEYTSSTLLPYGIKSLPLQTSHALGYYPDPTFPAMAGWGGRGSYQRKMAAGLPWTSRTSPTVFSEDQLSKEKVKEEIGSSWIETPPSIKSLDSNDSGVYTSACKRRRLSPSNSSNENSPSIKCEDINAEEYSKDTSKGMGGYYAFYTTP
Kind of test: sequential ChIP; sequential ChIP with antibodies to the two endogenous proteins in Day 2 endoderm cells, formaldehyde cross-linked chromatin, read out by Q-PCR on CDKI loci; IgG as first ChIP for control.

Results are given in words; binding and its absence hold for the method and conditions named. Some binding calls cover weakened binding; strength is not graded here.

With “SMYD2 (from UniProt Q9NRG4 1-433) (enzyme)”, the binding result is recorded as “binds”.
